{"source": "the supplement of paper PMC8732350", "note": "Structures can show the parent of a compound that is named as a salt. ± gives the standard deviation of the averaged measurements. Some of the results follow. Most values lie within the scatter of the assay; repeated measurements hardly agree.", "data": [{"test_system": "A549", "test": "surface PD-L1 immunofluorescence intensity relative to IFN-gamma-only control (ratio); higher = more PD-L1 expression", "conditions": "10 µM; exposure time 24 h; IFN-gamma 100 ng/mL", "values": [{"smiles": "CC(=O)Oc1cc(C(C)C)c(OCCN(C)C)cc1C", "note": "[Moxisylyte hydrochoride]", "surface PD-L1 immunofluorescence intensity": 0.815}, {"smiles": "CC(c1cc2ccccc2s1)N(O)C(N)=O", "note": "(stereo not drawn) [Zileuton]", "surface PD-L1 immunofluorescence intensity": 0.974}, {"smiles": "C[C@@H]1C(=O)O[C@H]2C[C@@]34[C@H]5C[C@@H](C(C)(C)C)[C@]36[C@@H](OC(=O)[C@@H]6O)O[C@@]4(C(=O)O5)[C@]21O", "note": "[Ginkgolide A]", "surface PD-L1 immunofluorescence intensity": 1.18}, {"smiles": "CC[N+](C)(CC)CC(=O)Nc1c(C)cccc1C", "note": "[N-Methyllidocaine iodide]", "surface PD-L1 immunofluorescence intensity": 1.14}, {"smiles": "CC[C@@H]1Cn2c(c3nc(-c4ccccc4)nc-3n(C)c2=O)N1", "surface PD-L1 immunofluorescence intensity": 1.03}, {"smiles": "CCOC(=O)c1c(C)[nH]c2ccc3c(c12)CN1CCc2cc(OC)ccc2C1O3", "note": "(stereo not drawn)", "surface PD-L1 immunofluorescence intensity": 0.927}, {"smiles": "C[C@@H]1CN(c2c(F)c(N)c3c(=O)c(C(=O)O)cn(C4CC4)c3c2F)C[C@H](C)N1", "note": "[Sparfloxacin]", "surface PD-L1 immunofluorescence intensity": 0.948}, {"smiles": "CCn1cc(C(=O)O)c(=O)c2cc(F)c(N3CCN(C)CC3)cc21", "note": "[Pefloxacine]", "surface PD-L1 immunofluorescence intensity": 0.92}, {"smiles": "CC#CCOC(=O)c1c(C)nc2sc3c(c2c1N)CCC(O)C3", "note": "(stereo not drawn)", "surface PD-L1 immunofluorescence intensity": 1.08}, {"smiles": "NC(=O)c1ccncc1", "note": "[Isonicotinamide]", "surface PD-L1 immunofluorescence intensity": 0.957}, {"smiles": "CCn1cc(C(=O)O)c(=O)c2cc(F)c(N3CCNC(C)C3)c(F)c21", "note": "(stereo not drawn) [Lomefloxacin hydrochloride]", "surface PD-L1 immunofluorescence intensity": 0.875}, {"smiles": "CS(=O)(=O)Nc1ccc([N+](=O)[O-])cc1Oc1ccccc1", "note": "[Nimesulide]", "surface PD-L1 immunofluorescence intensity": "0.949 ± 0.027"}, {"smiles": "COc1cc(C)nc(-n2nc(C)cc2OC)n1", "note": "[Epirizole]", "surface PD-L1 immunofluorescence intensity": 0.893}, {"smiles": "O=C(O)C1=CCNCC1", "note": "[Isoguvacine hydrochloride]", "surface PD-L1 immunofluorescence intensity": 1.09}, {"smiles": "CCn1c(=O)[nH]c2ccccc21", "surface PD-L1 immunofluorescence intensity": 1.12}, {"smiles": "CC1(C)[C@@H](O[C@H]2O[C@H](C(=O)O)[C@@H](O)[C@H](O)[C@H]2O[C@@H]2O[C@H](C(=O)O)[C@@H](O)[C@H](O)[C@H]2O)CC[C@]2(C)[C@H]3C(=O)C=C4[C@@H]5C[C@@](C)(C(=O)O)CC[C@]5(C)CC[C@@]4(C)[C@]3(C)CC[C@@H]12", "note": "[Glycyrrhizic acid]", "surface PD-L1 immunofluorescence intensity": 0.996}, {"smiles": "CC1(C)[C@@H](O[C@H]2O[C@H](C(=O)O)[C@@H](O)[C@H](O)[C@H]2O[C@@H]2O[C@H](C(=O)O)[C@@H](O)[C@H](O)[C@H]2O)CC[C@]2(C)[C@H]3C(=O)C=C4[C@@H]5C[C@@](C)(C(=O)O)CC[C@]5(C)CC[C@@]4(C)[C@]3(C)CC[C@@H]12", "note": "[Ammonium Glycyrrhizinate (AMGZ)]", "surface PD-L1 immunofluorescence intensity": 0.929}, {"smiles": "CCOC(=O)CCC(=O)O[C@H]1[C@H](O[C@@H]2[C@@H](C)[C@H](O[C@H]3C[C@@](C)(OC)[C@@H](O)[C@H](C)O3)[C@@H](C)C(=O)O[C@H](CC)[C@@](C)(O)[C@H](O)[C@@H](C)C(=O)[C@H](C)C[C@@]2(C)O)O[C@H](C)C[C@@H]1N(C)C", "note": "[Erythromycin Ethylsuccinate]", "surface PD-L1 immunofluorescence intensity": 0.957}]}]}
